Experimental data reported in paper PMC11984694.

By UniProt entry, the sequences of proteins in these tests, tags left out.
UniProt P12235: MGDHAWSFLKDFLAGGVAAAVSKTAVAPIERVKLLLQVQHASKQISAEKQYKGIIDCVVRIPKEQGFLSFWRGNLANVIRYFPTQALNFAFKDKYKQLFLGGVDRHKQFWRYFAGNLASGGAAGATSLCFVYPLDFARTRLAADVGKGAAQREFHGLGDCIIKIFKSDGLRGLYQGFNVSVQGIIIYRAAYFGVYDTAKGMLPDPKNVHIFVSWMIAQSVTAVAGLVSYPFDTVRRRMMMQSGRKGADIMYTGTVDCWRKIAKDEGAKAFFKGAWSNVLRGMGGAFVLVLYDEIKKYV

Molecular target: T1, RAB9 GTPase (UniProt P51151)
T1 sequence: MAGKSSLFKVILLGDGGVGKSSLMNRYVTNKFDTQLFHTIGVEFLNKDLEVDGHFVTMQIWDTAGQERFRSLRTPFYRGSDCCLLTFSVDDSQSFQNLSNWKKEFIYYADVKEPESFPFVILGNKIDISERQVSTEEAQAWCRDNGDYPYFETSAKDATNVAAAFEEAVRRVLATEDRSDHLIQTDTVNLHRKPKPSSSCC
Assay: affinity purification with mass spectrometry; IP-MS in 293 T cells; RAB9 as bait; no further conditions told

Adenine nucleotide translocase 1 (from UniProt P12235 1-298)
binding: binds

Results are given in words; binding and its absence hold for the method and conditions named. Binding seen in cells or lysates may run through a third protein. These calls come from enrichment with a bait or labelling near it, and not all partners need be listed.
